Where a chain is given by its changes, count along the chain named. No constants are given. Whether binding was seen depends on the method and setting. Binding seen in cells or lysates may run through a third protein. Some entries that bind do so weakly or less than the wild type.

The chains behind the UniProt entries cited, without tags or fusion partners. Residues count along the entry.
UniProt Q9UBK5, residues 19-93: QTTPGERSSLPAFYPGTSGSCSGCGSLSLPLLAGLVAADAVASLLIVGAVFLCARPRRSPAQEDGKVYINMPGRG

Assay [1] deals with DAP10 signaling protein (UniProt Q9UBK5). Description: co-immunoprecipitation by MYC tag from iPSC-derived NK cells, DAP10 staining.
Assay [2] shares this target. In words: co-immunoprecipitation by MYC tag from HYG1 cells, DAP10 immunoblot. (Immunoblotting shows a protein as a band on a membrane.)
For assay [3] the target is unchanged. In words: co-immunoprecipitation from iPSC-derived NK cells (summary of Examples 5-7).
Assay [4] has the same target. Description: co-immunoprecipitation from HYG1 cells (summary of Examples 1-3).

B1: CAR protein of SEQ ID No. 57 (native GLUT4 transmembrane domain SEQ ID No. 13) (receptor, not shown: small tags and cut ends)
chain: NSVLEQKLISEEDLGGGGGGDIQMTQTTSSLSASLGDRVTISCRASQDISKYLNWYQQKPDGTVKLLIYHTSRLHSGVPSRFSGSGSGTDYSLTISNLEQEDIATYFCQQGNTLPYTFGGGTKLEITGGGGGSGGGGSGGGGSEVKLQESGPGLVAPSQSLSVTCTVSGVSLPDYGVSWIRQPPRKGLEWLGVIWGSETTYYNSALKSRLTIIKDNSKSQVFLKMNSLQTDDTAIYYCAKHYYYGGSYAMDYWGQGTSVTVSSSPTSKETIGDYTWTNGSQPAVQPAVHLQAQIQIRVMYTTQGGGEAWGISVLNPNKTKVQGSAEGAHPHLLLSFPYGHLSFGFMQDLQQKVVYLSYMAVEYNVSFPHAAQWTFSAQNASLRDLQAPLGQSFSASNSSIILSPAVHLDLLSLRLQAAQLPHTGVFGQSFSAPSDRSAMGPYVFLLFAVLLLGFFIFTFLCPESPRYLYIIQNLEGPARKSLKRLTGWADVSGVLAELKDEKRKLERERPLSLLQLLGSRTHRQPRVPETRGRTFDQISAAFRRTPSLLEQEVKPSTELEYLGPDENDG
B1: the binding result with DAP10 signaling protein [1] and in the assay with DAP10 signaling protein [2] was “binds” throughout.

B2: CAR protein of SEQ ID No. 60 (synthetic GLUT4 transmembrane domain SEQ ID No. 37) (receptor, not shown: small tags and cut ends)
chain: B1 chain with P441R, Y442R
With B2, the binding entry with DAP10 signaling protein [1] and with DAP10 signaling protein [2] was “binds” throughout.

B3: CAR protein of SEQ ID No. 63 (synthetic GLUT4 transmembrane domain SEQ ID No. 38) (receptor, not shown: small tags and cut ends)
chain: B1 chain with Y442R, V443R
In the case of B3, the binding result in the assay with DAP10 signaling protein [3], with DAP10 signaling protein [4], in the assay with DAP10 signaling protein [1] and in the assay with DAP10 signaling protein [2] was “binds” each time.

B4: CAR protein of SEQ ID No. 62 (synthetic GLUT4 transmembrane domain SEQ ID No. 41) (receptor, not shown: small tags and cut ends)
chain: B1 chain with L445R, L446R
As for B4, the binding result in the assay with DAP10 signaling protein [1] and with DAP10 signaling protein [2] was “binds” in each case.

B5: CAR protein of SEQ ID No. 58 (synthetic GLUT4 transmembrane domain SEQ ID No. 17) (receptor, not shown: small tags and cut ends)
chain: B1 chain with Y442R
As to B5, the binding result in the assay with DAP10 signaling protein [1] and in the assay with DAP10 signaling protein [2] was “binds” each time.

B6: CAR protein of SEQ ID No. 59 (synthetic GLUT4 transmembrane domain SEQ ID No. 18) (receptor, not shown: small tags and cut ends)
chain: B1 chain with V443R
Consider B6, for which the binding result with DAP10 signaling protein [1] and with DAP10 signaling protein [2] was “binds” throughout.

B7: CAR protein of SEQ ID No. 61 (synthetic GLUT4 transmembrane domain SEQ ID No. 40) (receptor, not shown: small tags and cut ends)
chain: B1 chain with F444R, L445R
For B7, the binding result with DAP10 signaling protein [1] and with DAP10 signaling protein [2] was “binds” in each case.

B8: CAR protein of SEQ ID No. 64 (synthetic GLUT4 transmembrane domain SEQ ID No. 39) (receptor, not shown: small tags and cut ends)
chain: B1 chain with V443R, F444R
For the molecule B8, the binding result with DAP10 signaling protein [3], with DAP10 signaling protein [4], with DAP10 signaling protein [1] and with DAP10 signaling protein [2] was “binds” throughout.

Source of the values: patent EP4574838A1.
